This is an account of results in PubChem BioAssay AID2685 (National Center for Advancing Translational Sciences (NCATS), 2010).

This is one part of the list. Further columns of the screen follow, without active or inactive calls. Compounds called inactive in the main read-out are mostly missing here. Words in brackets tell the shape of the fitted curve; partial curves, single points and poor fits give uncertain potencies.

The experiment can be described thus: qHTS Assay for Lipid Storage Modulators in Drosophila S3 Cells.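 As to cell number change: cells counted by Cell Tracker Red CMTPX staining in the red channel.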 Conditions: BODIPY lipid droplet fluorescence, 18-24 h; for cell number change: measured here: cell count max response, cells fed with added oleic acid. Summed up:
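Laser-scanning cytometry quantifies lipid droplet accumulation (500–530 nm total intensity; droplet/cell object ratio) in oleic acid-fed (400 uM added) Drosophila S3 cells treated with a concentration series. 20 uM Triacsin C defined 100% inhibition.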
For orientation: qHTS replaces the single test concentration by a dilution series.

Where [1] appears, read: measured here: cell number channel AC50, cells fed with added oleic acid.
The mark [2] stands for this setting: measured here: lipid fluorescence (Fed channel) AC50, cells fed with added oleic acid.

What is called AC50 is the concentration giving half of the maximal activity seen. The low end stands for activity at low concentration, the high end for activity only at high concentration. With `CC1(C)CC(=O)c2cnc(NCc3ccco3)nc2C1`, the AC50 under setting [1] is 6.51 µM [rising, single point]. Regarding `CCOc1cc(CO)cc(Br)c1OCC(N)=O`, the cell number change was -10.8%. In addition, the concentration at half-maximal activity (AC50) under setting [1] was 0.00461 µM [falling, full curve, poor fit]. Regarding `Cc1cccc(-c2c3c(=O)n(C)c(=O)n(C)c3cn2-c2ccccc2O)c1`, the cell number change is -18.9%. Still for that read-out and setting: the value for `S=C(Nc1cccnc1)Nc1ccccc1Br` was 133%.

On to `CO/N=C(\C)C(Cc1ccc(Cl)nc1)Cc1ccc(Cl)nc1`, for which the cell number change was 5.79%. Moreover, the concentration at half-maximal activity (AC50) under setting [2] is 29.1 µM [rising, partial curve]. On to `CCCn1c2ccccc2c2nnc(SCC(=O)Nc3ncccn3)nc21`, for which the AC50 under setting [2] is 0.82 µM [rising, single point]. Take `COc1cc2c(cc1OC)C(c1ccccc1)N(C(=O)c1ccccc1)CC2` (stereo not given): the cell number change came out at 15.2%. Consider `O=C(Nc1ccc(NC(=O)C2CCCCC2)nc1)c1cccs1`, for which the cell number change was -17.9%. Moreover, the AC50 under setting [2] is 29.1 µM [falling, single point].

For `CC1(C)Cc2cccc(OCC(=O)N3CCN(c4cccc(Cl)c4)CC3)c2O1`, the AC50 under setting [1] is 0.206 µM [falling, full curve, poor fit]. Regarding `C=C(C)CCOC(=O)C(CC(=O)O)NCc1ccco1` (stereo not given), the cell number change is -12.9%. For the same compound, the AC50 under setting [2] is 0.00461 µM [falling, full curve, poor fit]. Consider `O=C(NC1CCN(Cc2ccccc2)CC1)c1cn(-c2ccccc2)nc1-c1cccnc1`, for which the cell number change came out at 6.68%.

With `C=C[C@@H]1c2c(F)cccc2N(S(=O)(=O)c2ccc(C)cc2)[C@H](c2ccc(C(=O)OC)cc2)C1(C#N)C#N`, the cell number change was -9.51%. For the same compound, the AC50 under setting [2] was 0.731 µM [falling, single point]. For `O=C(Nn1c(COc2ccccc2)nc2ccccc2c1=O)C(Cl)(Cl)Cl`, the concentration at half-maximal activity (AC50) under setting [1] was 7.31 µM [falling, single point]. As for `CNc1cc(N2CCN(S(=O)(=O)N(C)C)CC2)ccc1[N+](=O)[O-]`, the cell number change was -27.2%. Moreover, the AC50 under setting [1] was 0.13 µM [falling, full curve, poor fit]. For the same compound, the AC50 under setting [2] was 0.13 µM [falling, full curve]. Turning to `Cc1oc(-c2ccc(Cl)cc2)nc1CN1CCCC(C(=O)N2CCOCC2)C1` (stereo not given), the cell number change worked out at 24.8%.

Regarding `CN(C)c1ccc(C2CC(=O)NC3=C2C(=O)CC(C)(C)C3)cc1` (stereo not given), the cell number change was determined as 7.22%. In the case of `CSc1cccc(NS(=O)(=O)c2ccc3c(c2)NC(=O)C(C)C(=O)N3)c1` (stereo not given), the cell number change stood at 0.576%. In addition, under setting [2], the AC50 was 0.651 µM [rising, full curve, poor fit]. With `CCOc1cc(C)ccc1OCc1nnc(SCC(=O)Nc2cccc(C(=O)O)c2)n1-c1ccccc1`, the cell number change was 51.9%. Further, the concentration at half-maximal activity (AC50) under setting [2] is 29.1 µM [rising, single point]. On to `O=C(/C=C/c1ccc(OCCCF)cc1)Nc1ccnc(-c2ccncc2)n1`, for which the cell number change is -69.5%. In addition, the concentration at half-maximal activity (AC50) under setting [1] is 16.4 µM [falling, single point]. In the case of `O=C(NNS(=O)(=O)c1ccc(F)cc1)C1CCN(Cc2cccc(F)c2)CC1`, the cell number change is 34.1%. In addition, under setting [1], the half-maximal activity concentration (AC50) is 32.6 µM [rising, single point]. The AC50 under setting [2] is 6.51 µM [falling, single point]. As to `COC(=O)c1c(NC(=O)COC(=O)CCNS(=O)(=O)c2ccccc2)sc(C)c1C`, the cell number change was -21.9%. Turning to `CCOC(=O)N1CCN(c2c(N3CCN(c4ccccn4)CC3)c(=O)c2=O)CC1`, the cell number change was 50%. The AC50 under setting [1] is 29.1 µM [rising, single point]. On to `COc1ccc(CCNC(=O)Cc2ccc(Cl)cc2)cc1OC`, for which the cell number change was -32.8%. Besides, the AC50 under setting [1] is 16.4 µM [falling, single point]. Further, under setting [2], the AC50 was 29.1 µM [falling, single point]. As to `CCN(CC(=O)Nc1ccccc1C(=O)Nc1ccccc1)Cc1nc2ccccc2c(=O)[nH]1`, the cell number change is -16.1%.

Regarding `CCc1ccccc1NC(=O)Nc1cccn(Cc2ccccc2F)c1=O`, the AC50 under setting [2] was 6.51 µM [rising, single point].

As for `CCCN(CC(=O)Nc1ccccc1OC)C(=O)c1ccc(COc2ccccc2)o1`, the cell number change is -20%. Regarding `CC1CCN(c2ccc3c(c2)S(=O)(=O)c2cccc(C(=O)NC4CCCCC4)c2C3=O)CC1`, the cell number change is -22.4%. The AC50 under setting [2] is 29.1 µM [falling, single point]. Regarding `CCC1/C(=N\O)CC(c2ccco2)NC1c1ccco1` (stereo not given), the cell number change worked out at 35.3%. Further, the AC50 under setting [1] is 16.4 µM [rising, single point]. Moreover, the AC50 under setting [2] is 29.1 µM [rising, single point]. As for `CC(=O)OCCCN1c2ccccc2Nc2nnc(-c3ccccc3)cc21`, the cell number change was -22%.

With `CCn1c(COc2ccc3ccccc3c2C)nnc1SCC(=O)Nc1cccc(C(=O)O)c1`, the cell number change was 25.2%. Besides, the AC50 under setting [2] was 9.2 µM [rising, partial curve, poor fit]. On to `C#CCOc1ccc(/C=C2/C(=O)ON=C2C)cc1Cl`, for which the cell number change is -29.8%. Besides, the AC50 under setting [2] was 25.9 µM [falling, single point]. With `O=C(Cc1cccs1)NCc1cccc(CNC(=O)Cc2cccs2)c1`, the cell number change was determined as 51.2%. Besides, the AC50 under setting [1] was 0.58 µM [rising, full curve]. In the case of `COCCNC(=O)C(c1ccco1)N(C(=O)Cn1nnc2ccccc21)c1ccc(C)cc1C` (stereo not given), the cell number change was 91.5%. The AC50 under setting [1] is 10.3 µM [rising, partial curve]. Besides, the half-maximal activity concentration (AC50) under setting [2] is 7.31 µM [rising, partial curve]. On to `O=C(O)C1CSC2(c3ccc(Br)cc3)CCC(=O)N12` (stereo not given), for which, under setting [2], the AC50 is 1.03 µM [rising, single point]. With `CCN(CC)CCOC(=O)c1ccc2c(c1)OCCO2`, the cell number change was -61.6%. For the same compound, the concentration at half-maximal activity (AC50) under setting [1] was 0.164 µM [falling, full curve]. Besides, the half-maximal activity concentration (AC50) under setting [2] is 2.31 µM [falling, partial curve]. Regarding `O=C(Nc1ccc(Cl)cc1)N1CCCN(Cc2ccc(F)cc2)C1`, the concentration at half-maximal activity (AC50) under setting [2] is 0.259 µM [falling, full curve, poor fit]. For the compound `CCN1C(=O)c2cccc3c(NC(=O)c4ccc(OC)c(OC)c4)ccc1c23`, the AC50 is, setting by setting: under setting [1], 1.46 µM [rising, partial curve]; under setting [2], 0.461 µM [rising, full curve]. On to `CCCCOc1ccccc1C(=O)N(Cc1ccc(C)o1)C1CCS(=O)(=O)C1` (stereo not given), for which the cell number change is -18.1%. Also, the AC50 under setting [2] is 29.1 µM [falling, single point].

In the case of `CN1CCN(C(=O)/C(=C/c2ccc(N(C)C)cc2)NC(=O)c2ccccc2)CC1`, the cell number change was 26.9%. Turning to `CCC1CCCCN1C(=S)NC(=O)c1ccc(F)c(S(=O)(=O)N2CCOCC2)c1` (stereo not given), the cell number change was 14.5%. The AC50 under setting [2] is 0.731 µM [falling, partial curve]. Regarding `Cc1ccc(N2C(=O)CC(n3nc(C)cc3C)C2=O)cc1` (stereo not given), the cell number change was found to be 8.37%. Moreover, the AC50 under setting [2] is 0.00461 µM [falling, full curve, poor fit]. In the case of `O=C(Nc1ccccn1)Nc1ccccc1[N+](=O)[O-]`, the AC50 under setting [2] is 4.61 µM [falling, full curve].

Take `Cn1nc(-c2ccc(C(=O)Nc3ccc(F)cc3)cc2)c2ccccc2c1=O`: the cell number change was -67.2%. On the same count and under the same terms, with `O=C(c1coc(=O)c2ccccc12)N1CCN(Cc2ccccc2)CC1` the figure was -9.77%. For the compound `Cc1cc(OCC(=O)OCC(=O)NCC2CCCO2)ccc1Cl` (stereo not given), the cell number change amounted to 14.5%. For the same compound, the AC50 under setting [2] was 7.31 µM [rising, partial curve, poor fit].

Turning to `CCN(CC)C(=O)CSc1nnc([C@H](CCSC)NC(=O)OC(C)(C)C)o1`, the cell number change amounted to 3.73%. Moreover, the AC50 under setting [2] is 0.731 µM [rising, single point].

Turning to `Cc1cccc(NS(=O)(=O)c2ccc(NC(=O)CN(c3cc([N+](=O)[O-])ccc3C)S(C)(=O)=O)cc2)c1`, the cell number change is -60.9%. Besides, the AC50 under setting [1] was 29.1 µM [falling, single point]. The AC50 under setting [2] is 29.1 µM [falling, single point].

In the case of `NC(N)=N/N=C/c1ccc(OCc2ccc(Cl)cc2Cl)cc1`, the cell number change was -76.6%. The AC50 under setting [1] is 18.4 µM [falling, partial curve]. In addition, the AC50 under setting [2] is 0.0058 µM [falling, full curve, poor fit]. Take `COc1ccc(CC2CCOC2=O)cc1` (stereo not given): the cell number change is 1.33%.

`Cn1cc(C(=O)c2ccc(Cl)cc2Cl)cc1C(=O)N/N=C(\N)COc1ccc(Cl)cc1Cl`: the cell number change was 31.5%. For the same compound, under setting [1], the AC50 was 1.64 µM [rising, full curve, poor fit]. For the same compound, the AC50 under setting [2] is 6.51 µM [rising, single point]. As to `COc1ccc(C2=CC(=O)CC(c3ccc(OC)cc3)C2)cc1` (stereo not given), the cell number change worked out at 106%.

Turning to `Cc1[nH]c2ccc(C(=O)NCCCN3CCOCC3)cc2c1C`, the cell number change is -2.09%. As to `COc1cccc(OC)c1C(=O)Nc1ccc(N2CCCC2)cc1`, the cell number change came to 1.47%. Further, under setting [1], the AC50 was 0.58 µM [rising, full curve, poor fit].

As to `O=C(CN1C(=O)c2cccc3cccc1c23)N1CCN(c2ccccc2)CC1`, the half-maximal activity concentration (AC50) under setting [2] was 0.58 µM [falling, single point]. Take `Cn1c(=O)c2cn3c(c2n(C)c1=O)C(c1ccccc1)CC(c1ccccc1)=N3` (stereo not given): the cell number change came out at 7.4%. The AC50 under setting [2] was 0.231 µM [rising, full curve, poor fit].

Turning to `COc1ccc(OC)c(NC(=O)c2ccc(NS(C)(=O)=O)cc2)c1`, the AC50 under setting [2] is 7.31 µM [rising, partial curve]. Turning to `Cc1ccc(C2=NC3(CCCCC3)NC2=S)cc1`, the cell number change was -57.2%. Besides, the AC50 under setting [1] was 0.58 µM [falling, full curve]. Also, the concentration at half-maximal activity (AC50) under setting [2] is 0.58 µM [falling, full curve]. With `Cc1cc(C)n(-c2ccc(F)cc2)c(=O)c1C#N`, the cell number change was -10.2%. Moreover, under setting [2], the AC50 was 0.92 µM [falling, full curve, poor fit]. `CCOCCN1CCN(C(=O)CN2CCCC2=O)CC1`: the cell number change is -6.35%. Moreover, the AC50 under setting [2] was 1.16 µM [falling, partial curve]. Turning to `O=C(C[n+]1ccn(-c2ccccc2)c1)c1ccc([N+](=O)[O-])cc1`, the cell number change was -37.8%. The AC50 under setting [1] is 29.1 µM [falling, single point]. Besides, the AC50 under setting [2] was 6.51 µM [falling, single point]. As to `Cc1ccc2nc(SCc3nnc(-c4ccccc4[N+](=O)[O-])o3)c(C#N)cc2c1`, the cell number change is -21.5%. Besides, under setting [1], the AC50 is 3.26 µM [falling, single point].

On to `CCOC(=O)C(C)Oc1cccc2c(=O)n(CC(=O)NCc3ccc(F)cc3)ccc12` (stereo not given), for which the cell number change worked out at 6.28%. Besides, the AC50 under setting [2] is 1.03 µM [falling, full curve]. For the compound `O=C1CCN(CCc2ccccc2)CCN1[C@H](CO)Cc1ccccc1`, the cell number change was found to be 30.1%.
